## Results from one PubChem assay

Source: PubChem BioAssay AID1224904 (Broad Institute, 2016).

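293T-iDUX4 cells carrying a ZSCAN4-driven Gaussia luciferase and a tet-on Italica luciferase control; the gap between the two luminescence signals is read after 24 h.
The test concentration is not given here.
Percent difference between the Gaussia and Italica channels; more negative values mean more selective suppression of the DUX4 reporter, and higher values mean less activity.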

Values are in %.
How 0% and 100% were set is not given here.
Common to all entries: measured here: selective DUX4 reporter inhibition.
Part of the compounds only, not a random draw; the main read-out is not listed here.

compound: CN1c2ccc(-c3cccc(C#N)c3)cc2[C@H]2[C@H](CCN2S(=O)(=O)c2ccccc2F)[C@H]1CO
Gaussia minus Italica difference (%): 10.79

compound: OC[C@@H]1[C@H](c2ccccc2)C2(CN(Cc3ccccc3)C2)N1Cc1ccncc1
Gaussia minus Italica difference (%): -4.507

compound: CN1CCN(C(=O)C[C@@H]2CC[C@H]3[C@@H](COC[C@H](O)CN3Cc3ccc(Oc4ccccc4)cc3)O2)CC1
Gaussia minus Italica difference (%): -11.48

compound: COc1ccc2c3c(n(C)c2c1)[C@@H](CO)N(C(=O)Nc1ccc(F)cc1)CC31CCN(Cc2cccnc2)CC1
Gaussia minus Italica difference (%): 12.25

compound: COc1ccc(NC(=O)Nc2ccc3c(c2)C(=O)N([C@H](C)CO)C[C@@H](C)[C@H](CN(C)S(=O)(=O)c2c(C)noc2C)OCCCC[C@@H](C)O3)cc1
Gaussia minus Italica difference (%): 7.34

compound: O=C(C[C@@H]1CC[C@@H]2[C@H](COC[C@H](O)CN2Cc2cccc(-c3ccncc3)c2)O1)N1CCN(c2ccccc2)CC1
Gaussia minus Italica difference (%): -4.051

compound: O=C(C[C@H]1CC[C@H]2[C@@H](COC[C@H](O)CN2CCC(F)(F)F)O1)NCc1ccc(Oc2ccccc2)cc1
Gaussia minus Italica difference (%): -11.21

compound: CN(C)C(=O)c1cccc(-c2ccc3c(c2)[C@H]2[C@H](CCN2C(=O)c2ccccc2F)[C@H](CO)N3)c1
Gaussia minus Italica difference (%): 10.14

compound: CO[C@@H]1CN(C)C(=O)c2ccc(NC(=O)C3CC3)cc2OC[C@H](C)N(CCc2ccccc2)C[C@H]1C
Gaussia minus Italica difference (%): -13.22

compound: O=C(c1cccnc1)N1CC[C@@H]2[C@H](CO)Nc3ccc(-c4cccc(F)c4)cc3[C@@H]21
Gaussia minus Italica difference (%): -8.49

compound: COc1cccc(S(=O)(=O)Nc2ccc3c(c2)[C@H]2C[C@H](CC(=O)NCc4ccc(Cl)cc4)O[C@H](CO)[C@H]2O3)c1
Gaussia minus Italica difference (%): 3.635

compound: O=C(C1CCCCC1)N1CC2(C1)[C@H](c1ccccc1)[C@@H](CO)N2CC1CCCC1
Gaussia minus Italica difference (%): -18.68

compound: O=C(C[C@H]1CC[C@H]2[C@@H](COC[C@@H](O)CN2CCc2ccccc2)O1)NCc1ccc(Oc2ccccc2)cc1
Gaussia minus Italica difference (%): -5.048

compound: O=C(Nc1ccc(Cl)cc1)N[C@@H]1CC[C@H](CCn2cc(-c3ccccc3F)nn2)O[C@@H]1CO
Gaussia minus Italica difference (%): -13.43

compound: COc1ccc(C#Cc2ccc([C@H]3[C@H](CO)N4CCCCN(Cc5ccncc5)C[C@@H]34)cc2)cc1
Gaussia minus Italica difference (%): -14.25

compound: Cc1ccccc1S(=O)(=O)N1C[C@@H]2N[C@H](C1)C2c1ccc(-c2ccc(C#N)cc2)cc1 (some centres not stated)
Gaussia minus Italica difference (%): -4.669

compound: Cc1cccc(S(=O)(=O)N(C)C[C@@H]2OCc3ccccc3-c3c(n(C)c4ccccc34)C(=O)N([C@H](C)CO)C[C@H]2C)c1
Gaussia minus Italica difference (%): -22.59

compound: O=C(Nc1cccc(F)c1)N1CCCCN2[C@H](C1)[C@H](c1ccc(C#Cc3cccnc3)cc1)[C@@H]2CO
Gaussia minus Italica difference (%): 18.9

compound: CN1CCCCN2[C@H](CO)[C@@H](c3ccc(C#CC4(O)CCCC4)cc3)[C@H]2C1
Gaussia minus Italica difference (%): -6.69

compound: CCCNC(=O)N1CC2(CN(Cc3cccc(F)c3)C2)c2c([nH]c3cc(OC)ccc23)[C@@H]1CO
Gaussia minus Italica difference (%): -9.003

For reference, 2 entries once more:

| compound | Gaussia minus Italica difference (%) |
|---|---|
| `O=C(C[C@@H]1CC[C@@H]2[C@H](COC[C@H](O)CN2Cc2cccc(-c3ccncc3)c2)O1)N1CCN(c2ccccc2)CC1` | -4.051 |
| `O=C(Nc1ccc(Cl)cc1)N[C@@H]1CC[C@H](CCn2cc(-c3ccccc3F)nn2)O[C@@H]1CO` | -13.43 |